For 17 compounds, cell number change and AC50 results are on record in PubChem BioAssay AID2685 (National Center for Advancing Translational Sciences (NCATS), 2010).

Molecules are shown by their SMILES. This is one part of the list. Further columns of the screen follow, without active or inactive calls. Most of these compounds were active or inconclusive in the main read-out, so they are no random draw. The note in brackets gives the kind of curve behind each potency; many fits are weak.

The test is described as follows: qHTS Assay for Lipid Storage Modulators in Drosophila S3 Cells.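 As to cell number change: cells counted by Cell Tracker Red CMTPX staining in the red channel.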 The note with it: BODIPY lipid droplet fluorescence, 18-24 h; for cell number change: measured here: cell count max response, cells fed with added oleic acid. Put shortly:
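Drosophila S3 cells got compounds at several concentrations plus oleic acid (400 uM solution). Laser-scanning cytometry with 488 nm excitation read lipid droplets at 500-530 nm and cells at 575-640 nm. Percent activity was relative to 20 uM Triacsin C.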
(In qHTS, concentration-response curves come from the screen itself.)

[1] abbreviates: measured here: lipid fluorescence (Fed channel) AC50, cells fed with added oleic acid.
Setting [2] is: measured here: cell number channel AC50, cells fed with added oleic acid.

For orientation: AC50 means the midpoint of the concentration-response curve, whichever way the signal moves. On to `O=C(CSc1nncs1)NCCNC(=O)CSc1nncs1`, for which the cell number change was determined as 8.02%. Besides, under setting [1], the concentration at half-maximal activity (AC50) was 2.06 µM [rising, single point]. Consider `CCc1cccc(CC)c1N1C(=O)c2cc(N3CCOCC3)c([N+](=O)[O-])cc2C1=O`, for which the cell number change was -72.2%. Further, the AC50 under setting [2] was 18.4 µM [falling, partial curve]. In addition, under setting [1], the AC50 is 18.4 µM [falling, partial curve]. For the compound `CC(NC(=O)c1cccc(S(=O)(=O)N2CCc3ccccc3C2)c1)c1ccco1` (stereo not drawn), the cell number change was -7.52%. Further, under setting [1], the half-maximal activity concentration (AC50) was 13 µM [falling, partial curve]. For `CN1CCN(C(=O)CSc2nnc(COc3ccccc3)o2)CC1`, the cell number change was -11.8%. Under setting [1], the concentration at half-maximal activity (AC50) is 35.5 µM [rising, single point]. Consider `Cc1cc(C)c(S(=O)(=O)N2CCC3(CC2)OCCN3S(=O)(=O)c2cccs2)c(C)c1`, for which the cell number change was -14.1%. Take `CC(C)N(Cc1ccccc1)C(=O)c1cnc2n(c1=O)CCS2`: under setting [1], the AC50 was 4.11 µM [falling, single point]. For the compound `COc1ccc(-n2nc(C(=O)NCC(=O)NC3CCCCCC3)c3ccccc3c2=O)c(OC)c1`, the cell number change came out at 56.3%. The AC50 under setting [2] was 29.1 µM [rising, single point]. The AC50 under setting [1] is 0.58 µM [rising, single point]. For `CC(=O)Nc1ccc(S(=O)(=O)Nc2ccc(-n3cnnn3)cc2)cc1`, the cell number change came to 2.89%. Also, under setting [1], the AC50 is 7.31 µM [rising, partial curve]. Consider `O=C(CSc1ncnc2c1oc1ccccc12)Nc1ccccc1F`, for which the cell number change turned out to be 21.8%. The concentration at half-maximal activity (AC50) under setting [1] was 2.91 µM [rising, single point]. With `C/C(=N\NC(=O)c1csc(C)c1C)c1ccc(Cl)s1`, the cell number change amounted to 53.7%. Moreover, under setting [2], the AC50 was 32.6 µM [rising, partial curve]. Moreover, under setting [1], the half-maximal activity concentration (AC50) is 0.164 µM [rising, full curve, poor fit].

For `O=C(CC12CC3CC(CC(C3)C1)C2)NCC(=O)N1CCCC1`, the cell number change is -7.8%. For the compound `FC(F)Oc1ccc(NC(=S)NCC2COc3ccccc3O2)cc1` (stereo not drawn), under setting [1], the AC50 is 0.206 µM [rising, full curve, poor fit]. On to `CC(C)CC(=O)c1c[nH]c(C(=O)NCc2cccs2)c1`, for which the cell number change was 28%. Further, the AC50 under setting [2] is 0.0146 µM [rising, full curve, poor fit]. Besides, the concentration at half-maximal activity (AC50) under setting [1] was 3.66 µM [rising, partial curve]. On to `COc1ccc(-c2nc(CS(=O)(=O)CC(=O)NCCc3ccc(C)cc3)c(C)o2)cc1`, for which the cell number change is -4.82%. Consider `CN(C)S(=O)(=O)c1cccc(NC(=O)Cc2ccsc2)c1`, for which the cell number change turned out to be 13.2%. For `Cc1cc(C(F)F)n2nc(C(=O)NCc3ccccc3F)nc2n1`, the cell number change was -2.04%. The concentration at half-maximal activity (AC50) under setting [1] was 1.46 µM [rising, partial curve]. Consider `Cc1ccc(-n2c(C)nc3c(cnn3-c3ccc(C)c(C)c3)c2=O)cc1C`, for which the cell number change was 33.3%. Besides, the AC50 under setting [2] was 13 µM [rising, partial curve]. Under setting [1], the AC50 is 5.8 µM [rising, full curve].
